This is a selection; strong and weak results do not stand in their true shares. At the low end of the ranking the order means little.
Columns and labels:
Assay in all cases: DAPPL (digital affinity profiling via proximity ligation, sequencing)
Conditions in all cases: 10 mM Tris-HCl pH 7.5, 50 mM NaCl, 1 mM DTT, 4% glycerol, room temperature, 30 min; GST-TFs on glutathione beads, 16-mer random dsDNA library, 0.1% …; high values mean tight binding; double strand, one strand shown; scale: fold enrichment (6-mer frequency, TF over GST control)
ELF3 = target: T1, ELF3 (UniProt P78545)
T1 sequence: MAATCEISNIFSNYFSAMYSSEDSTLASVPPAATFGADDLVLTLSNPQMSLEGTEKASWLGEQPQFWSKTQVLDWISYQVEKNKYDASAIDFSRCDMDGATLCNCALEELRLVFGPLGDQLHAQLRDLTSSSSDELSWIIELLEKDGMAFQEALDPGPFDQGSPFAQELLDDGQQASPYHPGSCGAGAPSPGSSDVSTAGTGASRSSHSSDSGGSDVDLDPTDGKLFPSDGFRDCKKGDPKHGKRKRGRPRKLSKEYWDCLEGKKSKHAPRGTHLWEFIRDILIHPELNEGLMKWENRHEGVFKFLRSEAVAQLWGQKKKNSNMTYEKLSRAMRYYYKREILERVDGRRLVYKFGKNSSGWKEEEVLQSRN

Sequences of proteins named here, by UniProt entry; tags and fusion partners are left off. A change or cut given only in a name is not applied to a line headed by its entry.
UniProt Q9Y603: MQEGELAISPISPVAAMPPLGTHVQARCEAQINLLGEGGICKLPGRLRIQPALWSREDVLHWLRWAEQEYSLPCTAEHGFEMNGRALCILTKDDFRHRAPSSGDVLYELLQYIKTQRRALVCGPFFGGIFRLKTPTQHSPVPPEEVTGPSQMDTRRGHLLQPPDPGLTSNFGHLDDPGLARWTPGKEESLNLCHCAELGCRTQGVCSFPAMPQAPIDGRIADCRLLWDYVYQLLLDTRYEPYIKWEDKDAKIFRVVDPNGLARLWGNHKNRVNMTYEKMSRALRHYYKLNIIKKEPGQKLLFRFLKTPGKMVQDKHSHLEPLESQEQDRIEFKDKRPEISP
UniProt P41212: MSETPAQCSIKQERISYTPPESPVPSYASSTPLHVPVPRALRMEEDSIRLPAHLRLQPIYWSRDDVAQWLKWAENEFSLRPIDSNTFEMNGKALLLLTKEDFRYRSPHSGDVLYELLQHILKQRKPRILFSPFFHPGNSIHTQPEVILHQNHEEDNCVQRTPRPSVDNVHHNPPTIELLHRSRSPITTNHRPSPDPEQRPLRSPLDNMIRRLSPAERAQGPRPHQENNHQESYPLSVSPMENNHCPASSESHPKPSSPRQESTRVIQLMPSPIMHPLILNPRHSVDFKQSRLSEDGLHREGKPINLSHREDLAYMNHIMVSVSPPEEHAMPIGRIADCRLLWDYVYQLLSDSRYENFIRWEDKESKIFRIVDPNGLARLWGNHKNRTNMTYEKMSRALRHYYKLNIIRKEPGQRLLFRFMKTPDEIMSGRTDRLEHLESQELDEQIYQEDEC

ETV7 = ETV7 (UniProt Q9Y603)
ETV6 = ETV6 (UniProt P41212)

Sequence | binding signal (ELF3) | binding signal (ETV7) | binding signal (ETV6)
GCATCG | 0.692 | 0.765 | 0.808
GCGGTG | 0.453 | 0.56 | 0.53
TGGACG | 0.629 | 0.708 | 0.75
GCGTGC | 0.852 | 0.782 | 0.753
CGAGTC | 0.461 | 0.543 | 0.488
CCAGTT | 0.645 | 0.589 | 0.595
GTCCGT | 0.498 | 0.47 | 0.509
GTCAGC | 0.715 | 0.664 | 0.662
GCCATA | 0.862 | 0.88 | 0.899
GTTCGG | 0.662 | 0.621 | 0.619
GTTGAG | 0.72 | 0.547 | 0.676
GACGCT | 0.863 | 0.776 | 0.696
AGGCGC | 0.537 | 0.662 | 0.607
AGCCAG | 0.508 | 0.533 | 0.416
GGACAA | 0.769 | 0.933 | 0.858
GGAGGG | 0.301 | 0.355 | 0.314
GCGTGT | 0.656 | 0.633 | 0.532
GCTGGG | 0.793 | 0.788 | 0.849
GGCACG | 0.919 | 0.858 | 0.831
GTACGT | 0.755 | 0.846 | 0.911
TGTCGG | 0.35 | 0.369 | 0.314

Sequence | binding signal (ELF3) | binding signal (ETV7) | binding signal (ETV6)
CGTCGG | 0.48 | 0.476 | 0.403
CAGTGA | 0.336 | 0.389 | 0.351
TCGGCC | 0.852 | 0.743 | 0.649
CGAGCG | 0.972 | 0.973 | 0.893
GGGGGA | 0.564 | 0.531 | 0.596
GCTTGA | 0.904 | 0.859 | 0.822
GAGGCT | 0.59 | 0.617 | 0.6
CTGGAG | 0.675 | 0.642 | 0.655
GCGGAC | 0.847 | 0.735 | 0.731
ACGTCG | 0.616 | 0.631 | 0.595
AGATAG | 0.872 | 0.921 | 0.744
CGCGTG | 0.699 | 0.809 | 0.644
ATTGGA | 0.933 | 0.913 | 0.995
CAGGTT | 0.741 | 0.718 | 0.667
AGACGT | 0.535 | 0.54 | 0.478
GGTCAG | 0.539 | 0.625 | 0.545
ACAGAG | 0.765 | 0.859 | 0.715
GAGGAT | 0.583 | 0.646 | 0.566
GAGTCG | 0.205 | 0.247 | 0.216
GTAGGC | 0.617 | 0.819 | 0.698
ACCCAG | 0.682 | 0.72 | 0.659

Sequence | binding signal (ELF3) | binding signal (ETV7) | binding signal (ETV6)
GGATAG | 0.78 | 0.746 | 0.755
GTCCAG | 0.562 | 0.611 | 0.698
AGAGCG | 0.467 | 0.457 | 0.451
GTCGTT | 0.598 | 0.719 | 0.75
GGATTG | 0.795 | 0.816 | 0.771
GTAGTC | 0.74 | 0.766 | 0.625
GGGACT | 0.762 | 0.731 | 0.67
GATCGG | 0.457 | 0.525 | 0.47
GACACC | 0.769 | 0.94 | 0.876
AGTTCG | 0.73 | 0.624 | 0.783
GGGGGC | 0.699 | 0.658 | 0.598
AGCGTA | 0.916 | 0.864 | 0.892
GCGTGG | 0.408 | 0.576 | 0.544
AGACAG | 0.493 | 0.591 | 0.48
AGGGCA | 0.836 | 0.81 | 0.801
CAGGAG | 0.269 | 0.343 | 0.272
ACAGTA | 0.971 | 0.895 | 0.931
GGGCGT | 0.521 | 0.56 | 0.517
CGTGTG | 0.431 | 0.427 | 0.407
AGTAAG | 0.834 | 0.795 | 0.882
GGTTGC | 0.792 | 0.997 | 0.791

Retrieved one by one from above, 3 records:
Sequence | binding signal (ELF3) | binding signal (ETV7) | binding signal (ETV6)
CGTCGG | 0.48 | 0.476 | 0.403
CGAGTC | 0.461 | 0.543 | 0.488
GGATAG | 0.78 | 0.746 | 0.755

Following part:

Sequence | binding signal (ELF3) | binding signal (ETV7) | binding signal (ETV6)
GGCAGT | 0.535 | 0.6 | 0.539
AGACAA | 0.755 | 0.849 | 0.79
AGTCCA | 0.617 | 0.681 | 0.699
CGTGCT | 0.907 | 0.884 | 0.823
TGAAGT | 0.842 | 0.798 | 0.787
GGGGGG | 0.537 | 0.485 | 0.611
GGGAGC | 0.465 | 0.426 | 0.437
TGGCGG | 0.724 | 0.694 | 0.79
GAGACG | 0.351 | 0.361 | 0.321
CTCGGA | 0.905 | 0.774 | 0.844
AAGGAC | 0.892 | 0.912 | 0.851
AGAAAG | 0.9 | 0.862 | 0.897
GGGTGA | 0.616 | 0.649 | 0.671
GTCGGG | 0.25 | 0.273 | 0.214
GTGATA | 0.634 | 0.669 | 0.732
GGCCAT | 0.766 | 0.89 | 0.86
GTGGGG | 0.674 | 0.522 | 0.562
AGGCAT | 0.751 | 0.899 | 0.813
TAGTGA | 0.557 | 0.682 | 0.531
GAGCCA | 0.618 | 0.629 | 0.617
GGGGGT | 0.596 | 0.672 | 0.475
